# Data from the supplement of paper PMC3334620.
# Whole data set: some 33,000 sequences, median “E-score (-0.5 to 0.5)” near -0.0059, cut for the highest 2% near 0.26. Some of the results follow.
# Target: T1, Cin5 (UniProt P40917)
# T1 sequence: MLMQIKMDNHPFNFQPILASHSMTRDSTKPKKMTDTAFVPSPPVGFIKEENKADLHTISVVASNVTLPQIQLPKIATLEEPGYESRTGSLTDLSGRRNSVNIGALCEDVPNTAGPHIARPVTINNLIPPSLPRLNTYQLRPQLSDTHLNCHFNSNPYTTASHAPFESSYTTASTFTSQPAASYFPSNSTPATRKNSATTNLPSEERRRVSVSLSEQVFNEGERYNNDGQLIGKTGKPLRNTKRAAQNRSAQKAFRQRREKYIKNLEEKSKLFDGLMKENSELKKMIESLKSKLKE
# Assay: PBM E-score (8-mer binding enrichment) (E-score (-0.5 to 0.5)); higher = stronger / more preferred TF binding
# Details: protein concentration: 100 nM; construct: GST-full length
# Summary of the method: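 Each ungapped eight-base word and its reverse complement, pooled, received an E-score from the Universal PBM Analysis Suite. Underlying scans, normalised with masliner, recorded fluorescent anti-GST bound to GST-tagged yeast transcription factors. These were applied at about 100-200 nM to universal all-10-mer Agilent arrays double-stranded by primer extension.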
row,Sequence,PBM E-score
1,AGCCGTCC,-0.0189
2,ACATCCAC,0.0849
3,AATGGTAC,0.012
4,AAAAATAG,0.0888
5,GGTGCTGA,-0.0684
6,GAGTGTTA,0.121
7,ACTTTGAT,0.126
8,AAAGTACA,0.215
9,GCTTTTCC,-0.183
10,AGTAAGCA,0.283
11,CAACCTTC,0.0189
12,GAGCATCA,-0.0649
13,TCTGATCA,0.0138
14,GAGGGCTA,-0.205
15,TCTCGCAA,-0.0425
16,AGCTCCTA,-0.248
17,CTATGCGC,0.136
18,GGGAACCA,-0.215
19,GAAAGGCC,-0.195
20,CTGGTACA,0.00678
21,GGGGACTA,-0.225
22,CAAAACAG,0.0697
23,AAGCCGCA,0.0428
24,ATAGCAGA,0.0551
25,AGCCAAGC,-0.143

row,Sequence,PBM E-score
1,GCTCTCAA,-0.0233
2,GATTCCCC,-0.127
3,AACTGTTG,0.0594
4,GAAGTCGA,0.114
5,ATGGTTTG,-0.00284
6,GAACACCC,-0.119
7,GCGACAGA,0.134
8,TTGTACAA,0.0843
9,AGGTAAAA,0.126
10,GCAGCTGA,0.0415
11,AATCTTTG,0.0817
12,CTACAAAA,0.111
13,TGCTCCCA,-0.188
14,GGGTGCCA,0.0119
15,CTAGGTCC,-0.119
16,AGCCACCG,-0.233
17,AATCGGAG,0.123
18,CTAGATAC,0.096
19,CAAGACAA,0.216
20,AAAACTAT,0.2
21,AATTTATC,0.27
22,AGTAAAGA,0.18
23,ACCTGGAC,-0.13
24,CTCAGGTA,0.0217
25,ACGGCTCC,-0.0551

# Look-ups from the list.
# Under PBM E-score, AATCGGAG reads 0.123
# Under PBM E-score, GAACACCC reads -0.119
# Under PBM E-score, GAAAGGCC reads -0.195
# Under PBM E-score, AATGGTAC reads 0.012
# Under PBM E-score, GCGACAGA reads 0.134

# Remaining list, next part.

row,Sequence,PBM E-score
1,ATTAATAC,0.27
2,GAGGCCTC,-0.337
3,ACAACGAC,0.0696
4,CCTAGGCA,-0.118
5,ATGTACTG,0.0502
6,ACGTTAGC,0.243
7,CAGTAAAC,-0.00063
8,ACGCAGGC,-0.245
9,TAAGGTGA,-0.0218
10,AAGTCCTG,-0.236
11,CGAAGTAG,0.00111
12,ATATTAAA,0.35
13,CGGTACCA,-0.182
14,CTTTACGA,-0.142
15,AAAAAGGA,-0.0464
16,CCTGAAGC,-0.264
17,TGTTAAAA,0.0391
18,GGTGAGCA,-0.088
19,CATAGCAA,0.111
20,CTCGTAAG,0.304
21,GCATGTAC,0.00473
22,CGGCTGAG,-0.0825
23,CTCCCGAG,-0.282
24,CGAGTGCA,-0.0259
25,AGCTTATC,0.204

row,Sequence,PBM E-score
1,AGGCGGAT,-0.0191
2,GCGGTGGA,0.0809
3,CCTTACTC,0.128
4,ATTGCGAC,0.193
5,CACTTCTC,-0.0955
6,ATGCTACC,-0.0179
7,AAAGCGAT,0.21
8,CGCTACAG,-0.0762
9,ATTCGATA,0.221
10,GGAAAAAA,0.0511
11,CAAGACGC,-0.0331
12,TCCGGTAA,0.0576
13,CACCAAGG,-0.131
14,GAGAAAAA,0.0775
15,AATACCTA,0.216
16,TCAAGAAA,0.171
17,CGTAATGC,0.158
18,AGAAGCAT,0.0569
19,TATTAGAA,0.23
20,ACCCTAAA,0.0007
21,GCCGCAAA,0.0703
22,AGGAAAAA,0.0868
23,CCCATGGG,0.151
24,GTATACTA,-0.108
25,GCAGGTAC,-0.189

# A portion from the list above, for reference:
row,Sequence,PBM E-score
2,GCGGTGGA,0.0809
3,CCTTACTC,0.128
4,ATTGCGAC,0.193
5,CACTTCTC,-0.0955
6,ATGCTACC,-0.0179
7,AAAGCGAT,0.21
8,CGCTACAG,-0.0762

# (listing goes on)

row,Sequence,PBM E-score
1,ACCATGGG,-0.178
2,CAGCGGGA,-0.0406
3,ACGATTTC,0.142
4,AGATCGAT,0.108
5,AGAAAATC,0.0524
6,ACACACCG,-0.137
7,AGTCTCTG,-0.171
8,ATCAAGTC,0.0575
9,ACCCACAG,-0.083
10,CAGAAATC,-0.024
11,CAGACGTC,-0.133
12,CGCGAATA,0.222
13,CCGTGAAC,-0.0879
14,CGATTTTA,0.102
15,AAGGTTCT,-0.0108
16,CTATGTCC,-0.118
17,CCTGGTTC,-0.0432
18,ATACGGAC,-0.0541
19,AAGAAAAC,0.0459
20,ATATCGAA,0.221
21,ACGATCTC,-0.149
22,AACAGGCA,-0.0483
23,GTCACCCA,-0.00586
24,CTTACACA,0.259
25,GAGCGCCA,-0.158

row,Sequence,PBM E-score
1,CGTTTAGA,0.0309
2,CACGTTGG,-0.0725
3,GTAGCAAC,0.00568
4,CACCGCAG,-0.105
5,ACGGCGCG,0.0464
6,ACTCCATA,-0.106
7,ATAGCCGC,-0.122
8,CGTCGACC,-0.00147
9,AAGACCAG,-0.0562
10,AACTACGC,-0.00929
11,GTCCACAC,0.0151
12,GATATATC,0.1
13,ACTGAGTA,0.124
14,CTGGAATA,0.181
15,CGTCTGCC,-0.186
16,ATTCTTGC,0.0997
17,GCTCGGAC,-0.085
18,ACAGCAAA,0.0822
19,CGTGGAAA,0.28
20,AGAGCATA,-0.105
21,CGCAGCAC,-0.0528
22,AATATGGG,0.0723
23,ACATACAT,0.229
24,CTTGCTCA,-0.203
25,GCCGGAAC,0.0891

row,Sequence,PBM E-score
1,ATAGTTCA,0.106
2,AATCCCGA,0.26
3,ATAATGCA,0.0778
4,ACATTTCA,0.185
5,AGTTGCAT,0.122
6,ACACCCGG,-0.0164
7,ACATGCCG,0.0535
8,AAGGACGT,-0.0436
9,TATGGGGA,0.27
10,ATCGGTAC,0.0519
11,TAGCGCTA,-0.106
12,ATCATAGA,0.172
13,CTATCGTC,-0.0983
14,CTGGCTTC,-0.213
15,ACGAAAAC,0.201
16,AAAGTCGT,0.00718
17,AAGCGGCT,0.126
18,CAAAACTG,0.0853
19,ATCCCAAC,0.0399
20,ACAGGCGA,-0.14
21,CTAGTAAA,0.165
22,ATTAAACG,0.178
